Results reported in publication PMC3806761, “Characterization of the Akt2 Domain Essential for Binding Nuclear p21cip1 to Promote Cell Cycle Arrest during Myogenic Differentiation” (PLoS ONE, 2013).
These are yes or no findings as the source states them, for the method shown.

Sequences of proteins named here, by UniProt entry; tags and fusion partners are left off.
UniProt P38936: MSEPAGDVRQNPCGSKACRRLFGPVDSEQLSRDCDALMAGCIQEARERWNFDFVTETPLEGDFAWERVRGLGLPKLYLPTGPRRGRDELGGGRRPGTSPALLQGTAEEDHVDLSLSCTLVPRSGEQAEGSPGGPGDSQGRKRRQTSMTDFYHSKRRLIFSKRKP

Target: T1, recombinant human p21cip1 (human, UniProt P38936 1-164)
T1 construct: In the functional row this molecule stands for p21cip1 endogenous in human myoblasts; source: recombinant, purified
Assay: pull-down; purified His-tagged Akt2 proteins and His-tagged p21cip1 incubated together on ice; p21cip1 immunoprecipitated with anti-p21; immunoprecipitates probed for Akt2 by Western blot; both purified

| binding | Molecule |
| --- | --- |
| no binding | Akt2 (1–430) (from UniProt P31751 1-430) (domain or fragment) |
| no binding | Akt2 (430–481) (domain or fragment, UniProt P31751 430-481) VTSEVDTRYFDDEFTAQSITITPPDRYDSLGLLELDQRTHFPQFSYSASIRE |
